Not every entry of the source has a single result; some have several. The list is limited to them. There may be further records. The records of an entry do not match, cause unknown; they may come from other doses, times, organisms or constructs than stated.
Molecular target: hCK2α (Homo sapiens, UniProt P68400)
Test: Isothermal titration calorimetry (MicroCal iTC200), reverse titration
Format: binding
Settings: ΔSrt + ΔSHE(Ts) + ΔSother = 0

The chains behind the UniProt entries cited, without tags or fusion partners.
UniProt P68400, whole entry: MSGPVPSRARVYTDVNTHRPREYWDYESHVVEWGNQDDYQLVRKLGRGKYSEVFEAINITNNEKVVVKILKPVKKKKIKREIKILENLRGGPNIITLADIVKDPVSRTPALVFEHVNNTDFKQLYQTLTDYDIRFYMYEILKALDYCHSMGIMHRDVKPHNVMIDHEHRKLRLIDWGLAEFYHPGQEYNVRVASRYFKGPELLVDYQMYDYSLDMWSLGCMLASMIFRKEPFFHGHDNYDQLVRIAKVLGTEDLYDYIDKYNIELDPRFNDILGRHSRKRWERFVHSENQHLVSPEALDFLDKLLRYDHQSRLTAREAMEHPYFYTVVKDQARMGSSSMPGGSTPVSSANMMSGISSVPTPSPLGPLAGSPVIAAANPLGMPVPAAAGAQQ

Brc1cc2[nH]nnc2c(Br)c1Br [4,5,6-Br3Bt]
ΔSother, entropy change assigned to all other processes accompanying ligand binding: 6 ± 30 J∙mol-1∙K-1 and relatively minor

Reference: paper PMC8041304, “Halogen Atoms in the Protein–Ligand System. Structural and Thermodynamic Studies of the Binding of Bromobenzotriazoles by the Catalytic Subunit of Human Protein Kinase CK2” (The Journal of Physical Chemistry. B, 2021)
